From PubChem BioAssay AID2417 (National Center for Advancing Translational Sciences (NCATS), 2010)
The whole screen tested about 140,000 compounds, of which about 4,300 (3.1%) were called active. The inconclusive results got no clear call from the source; some entries with a clear call stand among them for comparison.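 How the source made its calls: active means readout at or below -70, meaning at least 70% loss of cells showing the perinucleolar compartment, a nuclear body marking cancer cells; inconclusive means readout between -30 and a set limit; inactive means the rest.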

Test: High Content Assay for Compounds that inhibit the Assembly of the Perinucleolar Compartment;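 further: plate controls were DMSO wells for no effect and camptothecin positive control wells for full effect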
Settings: PC3M PTB-GFP, PNC prevalence imaging, 16 h; at 10 µM; hits give low values
In short: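 Read-out is percentage of cells bearing a perinucleolar compartment, from automated 20x imaging of fixed, Hoechst-stained PC3M PTB-GFP cells. Cells were seeded 4 h, then exposed 16 h to compound (23 nl of library stock) in duplicate plates.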

Compound	activity change (PNC), negative = inhibition
O=C(Oc1cccc(-n2cnnn2)c1)c1ccco1	inconclusive: -31.5%
CCN1CCN(c2cc(C)c3cc(NC(=O)c4cncc(Br)c4)ccc3n2)CC1	inactive: -18%
Cc1ccc(-n2nnc3c(=O)n(CC(=O)N4CCC(C)CC4)cnc32)cc1	inconclusive: -41.1%
Cc1ccc(Nc2nc(N)nc(CN3CCN(C)CC3)n2)cc1	inconclusive: -43.5%
CCN(CC)CC(C)OC(=O)COc1ccc(OC)cc1 (stereo not drawn)	inconclusive: -35.1%
CC(CN1CCOCC1)OC(=O)c1ccc2c(c1)OCCO2 (stereo not drawn)	inconclusive: -41.2%
COc1ccc(C(C)=O)cc1CN1C(=O)C(C)N(c2ccc(C)cc2)C1=O (stereo not drawn)	inconclusive: -72.4%
CCC(CC)=C(C#N)C(=O)NC1CCCCC1	inconclusive: -39.3%
C=CCn1c(/N=C/c2ccc(N(C)C)cc2)nc2ccccc21	inconclusive: -44.5%
CC(C)[C@H](NC(=O)c1ccccc1)C(=O)OCC(=O)Nc1ccc(Cl)cc1C(F)(F)F	inconclusive: -40.6%
C=CCN1C(c2ccc(OCC)cc2)=CS/C1=C(\C#N)c1nnc2n1CCCCC2	inconclusive: -63.5%
COc1ccccc1OCc1nnc(SCC(=O)c2cc(Cl)ccc2OC)o1	inconclusive: -45.1%
CCOC(=O)c1[nH]c(C)c(C(=O)OCC(=O)N2c3ccccc3CC2C)c1C (stereo not drawn)	inconclusive: -71%
CCOC(=O)N1CCN(C(=O)CSc2nc3c(c(=O)n2-c2ccccc2OC)SCC3)CC1	inconclusive: -35.9%
O=C1NC(=O)C(=C2CCCCCC2)S1	active: -105%
Cc1ccc(NC(=O)Cn2c(-c3ccc(F)cc3)cnc2SCC(=O)Nc2c(C)cccc2C)cc1	inconclusive: -32.8%
Cn1c(C(=O)OC(C(=O)NC2CCCC2)c2cccnc2)cc2sccc21 (stereo not drawn)	inconclusive: -37.1%
CCN(CC)C(=O)c1cc(C(C)(C)C)c(O)c(C(C)(C)C)c1	inconclusive: -40.5%
CSc1nsc(SCC(=O)N2CCCc3ccccc32)n1	inconclusive: -42.7%
COc1ccc(NC(=O)CSc2nnc(-c3ccoc3C)n2CCc2ccccc2)cc1	inconclusive: -45.5%

Structures shown so far containing an aryl methoxy group (five):
Compound	activity change (PNC), negative = inhibition
CCN(CC)CC(C)OC(=O)COc1ccc(OC)cc1 (stereo not drawn)	inconclusive: -35.1%
COc1ccc(C(C)=O)cc1CN1C(=O)C(C)N(c2ccc(C)cc2)C1=O (stereo not drawn)	inconclusive: -72.4%
COc1ccccc1OCc1nnc(SCC(=O)c2cc(Cl)ccc2OC)o1	inconclusive: -45.1%
CCOC(=O)N1CCN(C(=O)CSc2nc3c(c(=O)n2-c2ccccc2OC)SCC3)CC1	inconclusive: -35.9%
COc1ccc(NC(=O)CSc2nnc(-c3ccoc3C)n2CCc2ccccc2)cc1	inconclusive: -45.5%

Further structures follow:

Compound	activity change (PNC), negative = inhibition
O=C1C(SC(F)(F)C(F)F)=C(C(F)(F)F)OC2C3C=CC(C3)C12 (stereo not drawn)	inconclusive: -66.8%
Cc1onc(-c2c(F)cccc2Cl)c1C(=O)N1CCN(S(C)(=O)=O)CC1	inactive: -3.06%
CCOC(=O)c1[nH]c(C)c(C(=O)NCCC2=CCCCC2)c1C	inconclusive: -47.1%
O=S(=O)(Cc1ccccc1)N1CCn2c(nc3ccccc32)C1	active: -87.1%
CC(=O)Nc1ccc(Cl)c(C(N)=O)c1	inactive: 20.1%
CC(C)NC(=O)NC(=O)CSc1ccccc1F	inconclusive: -40%
CCC1Oc2ccc(C)cc2N(CC(=O)NCc2ccccc2OC)C1=O (stereo not drawn)	inconclusive: -52.8%
COc1ccc(Cn2c(=O)sc3ccccc32)cc1OC	inconclusive: -58.5%
O=S(=O)(c1ccc(Cl)cc1)N1CCN(c2ccc(N3CCOCC3)nn2)CC1	inconclusive: -42%
Cc1[nH]c(=S)c(C#N)c(C)c1C(=O)Nc1ccccc1	inactive: 17.6%
CCOC(=O)N1CCC(NC(=O)C2CCCN(S(=O)(=O)c3ccc4c(c3)oc(=O)n4C)C2)CC1 (stereo not drawn)	active: -89.9%
CN(C)c1cccc(C(=O)Nc2ccc3nc4n(c(=O)c3c2)CCCCC4)c1	inconclusive: -40.4%
S=C1NCCc2ccc(Cl)cc2C1c1ccccc1Cl (stereo not drawn)	active: -100%
CCC(=O)n1nc(-c2ccc(Cl)cc2)nc1SC	inconclusive: -36.4%
CCOC(=O)CSc1nc2cc(C(=O)N3CCC(C(N)=O)CC3)ccc2c(=O)n1-c1ccccc1	inactive: -13%
CN(C(=O)COc1ccc(C(C)(C)C)cc1)C1CCS(=O)(=O)C1 (stereo not drawn)	active: -120%
CCOc1cc(N2CCOCC2)c(OCC)cc1NC(C)C(=O)N1CCC(C)CC1 (stereo not drawn)	inconclusive: -72.4%
CN1CCN(c2nc3c(c(=O)n(C)c(=O)n3C)n2CC(N)=O)CC1	inconclusive: -30.8%
CCc1nnc(NC(=O)CSc2nnc(Cc3cccn3C)n2C)s1	inconclusive: -30.3%
Cc1ccc(Sc2nnc(-c3ccccc3)cc2C#N)cc1	inconclusive: -31.4%

Compound	activity change (PNC), negative = inhibition
COC(=O)c1ccc(NC(=O)c2cn(-c3ccccc3)nc2-c2ccncc2)cc1	inconclusive: -59.9%
Cc1ccc2cc(C)c(Sc3nnnn3-c3ccccc3)nc2c1	inactive: 0.393%
CN(C)S(=O)(=O)c1cccc(C(=O)NCCc2ccccc2)c1	inconclusive: -70.5%
CN=C1c2ccccc2CN1c1cccc(C(=O)OC)c1	inconclusive: -37.4%
COc1cccc(-c2nn(-c3ccccc3)cc2C(=O)O)c1	inconclusive: -35%
Cc1ccc(-n2c(C(C)n3nc(C)c([N+](=O)[O-])c3C)n[nH]c2=S)cc1 (stereo not drawn)	inactive: 1.61%
Cc1nn(-c2ccccc2)c(Cl)c1C(=O)Nc1ccccc1	inconclusive: -66%
COc1cc(/C=N/NC(N)=O)ccc1OC(=O)c1ccc(C)cc1	inconclusive: -46.1%
CCNc1nc(SCCOc2ccc(C)cc2)nc(N(C)C)n1	inconclusive: -61.5%
CCC/C(O)=N\S(=O)(=O)c1ccc(N=NN(C)C)cc1	inactive: -4%
c1coc(CN(Cc2ccco2)c2ncnc3c2oc2ccccc23)c1	inactive: 8.95%
Cc1cc(NC(=O)CCCN2C(=O)/C(=C\c3cccs3)SC2=S)no1	inconclusive: -41.4%
Cc1ccsc1C(=O)N/N=C/c1ccc([N+](=O)[O-])cc1	inactive: -4.41%
O=C(COC(=O)Cc1ccsc1)Nc1ccc(Cl)c(S(=O)(=O)N2CCOCC2)c1	active: -86.8%
Brc1cc2c(cc1/C=N/Nc1nc(N3CCCC3)nc(N3CCOCC3)n1)OCO2	inconclusive: -47.8%
CC1(NC(=S)N(CCO)CCO)CCS(=O)(=O)C1 (stereo not drawn)	inconclusive: -42.7%
COc1cc(CC(=O)Nc2ccc(S(=O)(=O)N(C)C)cc2)cc(OC)c1OC	inactive: 6.82%
CCN1C(=O)/C(=c2\o/c(=C3\C=Cc4ccccc4N3CC)c(=O)n2CC)SC1=S	inactive: 23.4%
